From article PMC4812329
No constants are given. Whether binding was seen depends on the method and setting.

Amino acid sequences for entries named in this document (tags omitted). Residues count along the entry.
UniProt Q12809, residues 734-864: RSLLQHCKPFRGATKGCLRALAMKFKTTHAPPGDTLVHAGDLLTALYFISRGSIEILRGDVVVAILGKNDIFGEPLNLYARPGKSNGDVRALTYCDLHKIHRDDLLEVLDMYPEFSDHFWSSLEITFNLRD

Tests used:
[1] = target: cyclic nucleotide-binding homology domain (CNBHD) of the hERG channel, residues R734 to D864 (human) (UniProt Q12809); assay: NMR 15N relaxation (correlation time from R2/R1); 15N-labelled CNBHD in NMR buffer, 298 K, 700 MHz; estimated correlation time about 12.2 ns; both purified
[2] = target: cyclic nucleotide-binding homology domain (CNBHD) of the hERG channel, residues R734 to D864 (human) (UniProt Q12809); assay: NMR titration; 1H-15N-HSQC spectra of 0.2 mM 15N-labeled CNBHD in the absence and presence of 0.5 mM peptide; both purified

Molecule | binding [1] | binding [2]
cyclic nucleotide-binding homology domain (CNBHD) of the hERG channel, residues R734 to D864 (from UniProt Q12809 734-864) (domain or fragment) | no binding | –
TFLDTIIRKFE [peptide derived from the cap domain helix of hERG (T13-E23)] | – | no binding (tested: 0.5 mM peptide)
